Results on four molecules are retold here after patent US20180305449A1 (ONCOMED PHARMACEUTICALS, published 2018).

The target of the assay is VEGF (ATGEN, South Korea). Nature of the assay: bispecific sandwich ELISA: antibody pre-incubated with 2 ug/ml biotin-DLL4-hFc, captured on VEGF-coated plate, detected with streptavidin-HRP. For orientation: ELISA stands for enzyme-linked immunosorbent assay.

These are yes or no findings as the source states them, for the method shown. Binding calls can cover weak binding; strength is not graded here.

B1: anti-VEGF/anti-DLL4 bispecific antibody 219R45-MB-21R83 (bispecific antibody, human IgG2)
heavy 1: QVQLVQSGAEVKKPGASVKVSCKASGYTFTNYWMHWVRQAPGQGLEWMGDINPSNGRTSYKEKFKRRVTLSVDKSSSTAYMELSSLRSEDTAVYFCTIHYDDKYYPLMDYWGQGTLVTVSSASTKGPSVFPLAPCSRSTSESTAALGCLVKDYFPEPVTVSWNSGALTSGVHTFPAVLQSSGLYSLSSVVTVPSSNFGTQTYTCNVDHKPSNTKVDKTVERKCCVECPPCPAPPVAGPSVFLFPPKPKDTLMISRTPEVTCVVVDVSHEDPEVQFNWYVDGVEVHNAKTKPREEQFNSTFRVVSVLTVVHQDWLNGKEYKCKVSNKGLPAPIEKTISKTKGQPREPQVYTLPPSREKMTKNQVSLTCLVKGFYPSDIAVEWESNGQPENNYKTTPPMLKSDGSFFLYSKLTVDKSRWQQGNVFSCSVMHEALHNHYTQKSLSLSPGK
heavy 2: QVQLVQSGAEVKKPGASVKISCKASGYSFTAYYIHWVKQAPGQGLEWIGYISNYNRATNYNQKFKGRVTFTTDTSTSTAYMELRSLRSDDTAVYYCARDYDYDVGMDYWGQGTLVTVSSASTKGPSVFPLAPCSRSTSESTAALGCLVKDYFPEPVTVSWNSGALTSGVHTFPAVLQSSGLYSLSSVVTVPSSNFGTQTYTCNVDHKPSNTKVDKTVERKCCVECPPCPAPPVAGPSVFLFPPKPKDTLMISRTPEVTCVVVDVSHEDPEVQFNWYVDGVEVHNAKTKPREEQFNSTFRVVSVLTVVHQDWLNGKEYKCKVSNKGLPAPIEKTISKTKGQPREPQVYTLPPSREEMTKNQVSLTCLVEGFYPSDIAVEWESNGQPENNYKTTPPMLDSDGSFFLYSELTVDKSRWQQGNVFSCSVMHEALHNHYTQKSLSLSPGK
light: DIVMTQSPDSLAVSLGERATISCRASESVDNYGISFMKWFQQKPGQPPKLLIYAASNQGSGVPDRFSGSGSGTDFTLTISSLQAEDVAVYYCQQSKEVPWTFGGGTKVEIKRTVAAPSVIFPPSDEQLKSGTASVVCLLNNFYPREAKVQWKVDNALQSGNSQESVTEQDSKDSTYSLSSTLTLSKADYEKHKVYACEVTHQGLSSPVTKSFNRGEC
notes: Monovalent/bispecific IgG2 heterodimer with charge-modified CH3 domains and two identical light chains
B1: the binding entry is given as “binds”.

B2: anti-VEGF/anti-DLL4 bispecific antibody 219R45-MB-21R79 (bispecific antibody, human IgG2)
heavy 1: QVQLVQSGAEVKKPGASVKVSCKASGYTFTNYWMHWVRQAPGQGLEWMGDINPSNGRTSYKEKFKRRVTLSVDKSSSTAYMELSSLRSEDTAVYFCTIHYDDKYYPLMDYWGQGTLVTVSSASTKGPSVFPLAPCSRSTSESTAALGCLVKDYFPEPVTVSWNSGALTSGVHTFPAVLQSSGLYSLSSVVTVPSSNFGTQTYTCNVDHKPSNTKVDKTVERKCCVECPPCPAPPVAGPSVFLFPPKPKDTLMISRTPEVTCVVVDVSHEDPEVQFNWYVDGVEVHNAKTKPREEQFNSTFRVVSVLTVVHQDWLNGKEYKCKVSNKGLPAPIEKTISKTKGQPREPQVYTLPPSREKMTKNQVSLTCLVKGFYPSDIAVEWESNGQPENNYKTTPPMLKSDGSFFLYSKLTVDKSRWQQGNVFSCSVMHEALHNHYTQKSLSLSPGK
heavy 2: QVQLVQSGAEVKKPGASVKISCKASGYSFTAYYIHWVKQAPGQGLEWIGYIANYNRATNYNQKFKGRVTFTTDTSTSTAYMELRSLRSDDTAVYYCARDYDYDVGMDYWGQGTLVTVSSASTKGPSVFPLAPCSRSTSESTAALGCLVKDYFPEPVTVSWNSGALTSGVHTFPAVLQSSGLYSLSSVVTVPSSNFGTQTYTCNVDHKPSNTKVDKTVERKCCVECPPCPAPPVAGPSVFLFPPKPKDTLMISRTPEVTCVVVDVSHEDPEVQFNWYVDGVEVHNAKTKPREEQFNSTFRVVSVLTVVHQDWLNGKEYKCKVSNKGLPAPIEKTISKTKGQPREPQVYTLPPSREEMTKNQVSLTCLVEGFYPSDIAVEWESNGQPENNYKTTPPMLDSDGSFFLYSELTVDKSRWQQGNVFSCSVMHEALHNHYTQKSLSLSPGK
light: DIVMTQSPDSLAVSLGERATISCRASESVDNYGISFMKWFQQKPGQPPKLLIYAASNQGSGVPDRFSGSGSGTDFTLTISSLQAEDVAVYYCQQSKEVPWTFGGGTKVEIKRTVAAPSVIFPPSDEQLKSGTASVVCLLNNFYPREAKVQWKVDNALQSGNSQESVTEQDSKDSTYSLSSTLTLSKADYEKHKVYACEVTHQGLSSPVTKSFNRGEC
notes: as for B1
For B2, the binding result was “binds”.

B3: anti-VEGF/anti-DLL4 bispecific antibody 219R45-MB-21R75 (bispecific antibody, human IgG2)
heavy 1: QVQLVQSGAEVKKPGASVKVSCKASGYTFTNYWMHWVRQAPGQGLEWMGDINPSNGRTSYKEKFKRRVTLSVDKSSSTAYMELSSLRSEDTAVYFCTIHYDDKYYPLMDYWGQGTLVTVSSASTKGPSVFPLAPCSRSTSESTAALGCLVKDYFPEPVTVSWNSGALTSGVHTFPAVLQSSGLYSLSSVVTVPSSNFGTQTYTCNVDHKPSNTKVDKTVERKCCVECPPCPAPPVAGPSVFLFPPKPKDTLMISRTPEVTCVVVDVSHEDPEVQFNWYVDGVEVHNAKTKPREEQFNSTFRVVSVLTVVHQDWLNGKEYKCKVSNKGLPAPIEKTISKTKGQPREPQVYTLPPSREKMTKNQVSLTCLVKGFYPSDIAVEWESNGQPENNYKTTPPMLKSDGSFFLYSKLTVDKSRWQQGNVFSCSVMHEALHNHYTQKSLSLSPGK
heavy 2: QVQLVQSGAEVKKPGASVKISCKASGYSFTAYYIHWVKQAPGQGLEWIGYIAGYKDATNYNQKFKGRVTFTTDTSTSTAYMELRSLRSDDTAVYYCARDYDYDVGMDYWGQGTLVTVSSASTKGPSVFPLAPCSRSTSESTAALGCLVKDYFPEPVTVSWNSGALTSGVHTFPAVLQSSGLYSLSSVVTVPSSNFGTQTYTCNVDHKPSNTKVDKTVERKCCVECPPCPAPPVAGPSVFLFPPKPKDTLMISRTPEVTCVVVDVSHEDPEVQFNWYVDGVEVHNAKTKPREEQFNSTFRVVSVLTVVHQDWLNGKEYKCKVSNKGLPAPIEKTISKTKGQPREPQVYTLPPSREEMTKNQVSLTCLVEGFYPSDIAVEWESNGQPENNYKTTPPMLDSDGSFFLYSELTVDKSRWQQGNVFSCSVMHEALHNHYTQKSLSLSPGK
light: DIVMTQSPDSLAVSLGERATISCRASESVDNYGISFMKWFQQKPGQPPKLLIYAASNQGSGVPDRFSGSGSGTDFTLTISSLQAEDVAVYYCQQSKEVPWTFGGGTKVEIKRTVAAPSVIFPPSDEQLKSGTASVVCLLNNFYPREAKVQWKVDNALQSGNSQESVTEQDSKDSTYSLSSTLTLSKADYEKHKVYACEVTHQGLSSPVTKSFNRGEC
notes: as for B1
For B3, the binding result is on record as “binds”.

B4: anti-VEGF/anti-DLL4 bispecific antibody 219R45-MB-21M18 (bispecific antibody, human IgG2)
heavy 1: QVQLVQSGAEVKKPGASVKVSCKASGYTFTNYWMHWVRQAPGQGLEWMGDINPSNGRTSYKEKFKRRVTLSVDKSSSTAYMELSSLRSEDTAVYFCTIHYDDKYYPLMDYWGQGTLVTVSSASTKGPSVFPLAPCSRSTSESTAALGCLVKDYFPEPVTVSWNSGALTSGVHTFPAVLQSSGLYSLSSVVTVPSSNFGTQTYTCNVDHKPSNTKVDKTVERKCCVECPPCPAPPVAGPSVFLFPPKPKDTLMISRTPEVTCVVVDVSHEDPEVQFNWYVDGVEVHNAKTKPREEQFNSTFRVVSVLTVVHQDWLNGKEYKCKVSNKGLPAPIEKTISKTKGQPREPQVYTLPPSREKMTKNQVSLTCLVKGFYPSDIAVEWESNGQPENNYKTTPPMLKSDGSFFLYSKLTVDKSRWQQGNVFSCSVMHEALHNHYTQKSLSLSPGK
heavy 2: QVQLVQSGAEVKKPGASVKISCKASGYSFTAYYIHWVKQAPGQGLEWIGYISSYNGATNYNQKFKGRVTFTTDTSTSTAYMELRSLRSDDTAVYYCARDYDYDVGMDYWGQGTLVTVSSASTKGPSVFPLAPCSRSTSESTAALGCLVKDYFPEPVTVSWNSGALTSGVHTFPAVLQSSGLYSLSSVVTVPSSNFGTQTYTCNVDHKPSNTKVDKTVERKCCVECPPCPAPPVAGPSVFLFPPKPKDTLMISRTPEVTCVVVDVSHEDPEVQFNWYVDGVEVHNAKTKPREEQFNSTFRVVSVLTVVHQDWLNGKEYKCKVSNKGLPAPIEKTISKTKGQPREPQVYTLPPSREEMTKNQVSLTCLVEGFYPSDIAVEWESNGQPENNYKTTPPMLDSDGSFFLYSELTVDKSRWQQGNVFSCSVMHEALHNHYTQKSLSLSPGK
light: DIVMTQSPDSLAVSLGERATISCRASESVDNYGISFMKWFQQKPGQPPKLLIYAASNQGSGVPDRFSGSGSGTDFTLTISSLQAEDVAVYYCQQSKEVPWTFGGGTKVEIKRTVAAPSVIFPPSDEQLKSGTASVVCLLNNFYPREAKVQWKVDNALQSGNSQESVTEQDSKDSTYSLSSTLTLSKADYEKHKVYACEVTHQGLSSPVTKSFNRGEC
notes: Monovalent/bispecific (MB) IgG2 heterodimer with charge-modified CH3 domains and two identical light chains
Turning to B4, the binding result is “binds”.
